Reference: publication PMC10163288
This is one part of the list.

B1: il10ra_site1_normal_mot_HHH_b1_00929_000000068_0001_1_20_H_._HHH_b2_07604_0001_0000100006_0000002_0 (protein)
chain: SSSDALEEVWELIREAVEALEQGDQERAEELVEEAREIAEEANNILARFAVRAIERAVRLRSSSS
B2: il10ra_site1_sap_19_mot_HHH_b2_00076_000000055_0001_40_55_H_._HHH_b1_00748_0001_0000100001_0000001_0_0001 (protein)
chain: SSSSSDEVYRLIKKAIELLAEGNPEEAKKVLEEAEELAERAGNRILVWAIRFAEELLERQSSSSS
B3: il10ra_site1_sap_22_mot_HHH_b1_03574_000000194_0001_1_18_H_._HHH_b1_05657_0001_0000100016_0000001_0_0001 (protein)
chain: SAEEKLEELAEEAGIPPEELERLIELVARLAGVPPELVLDAIEQIARQSRVPPAEAARILVRAYR
B4: il10ra_site1_sap_17_mot_HHH_b2_07758_000000036_0001_41_55_H_._HHH_b2_04674_0001_0000400046_0000002_0_0001 (protein)
chain: SSSSSARELYELLRRAMELLRNGNPEEARKLLEEAQEIAEEANNRVLLLNIRYVLRQVERNSSSS
B5: il10ra_site1_sap_23_mot_39ab2cb694c8b9c1dc7e65c0d672c93e_0001_000000036_0001_53_65_H_._HHH_b2_08014_af2_0001_0000200003_0000002_0_0001 (protein)
chain: SSSSSDEEIEERVEELLEEAERITDPRKAIELLLEATHLAWEAQDPELLRLVWRVVHRLSSSSSS
B6: il10ra_site1_sap_22_mot_HHH_b2_02447_000000247_0001_1_18_H_._HHH_b2_07579_0001_0000100003_0000001_0_0001 (protein)
chain: SSSSSSDLEELVEEAEEVAEERGNRAAAFLLRQALEAYKLAGDPHVEENIRNLLRLVLSSSSSSS
B7: il10ra_site1_normal_mot_HHH_b2_03328_af2_000000127_0001_1_19_H_._HHH_b1_00148_0001_0000400018_0000002_0 (protein)
chain: SSSSDSRELYRLSREAAELFAEGNPEEAEEVLEEAIRIAQEAGNFILLFALEHLLRAIRESSSSS
B8: il10ra_site1_normal_mot_HHH_b2_08186_000000021_0001_43_56_H_._HHH_b1_07250_0001_0000200046_0000001_0 (protein)
chain: SSSSSIEEEIKELLEEIERAIEEGDKEEANRLLLRVLRLVLEANDAELLQRVWELLRLLASSSSS
B9: il10ra_site1_sap_16_mot_HHH_b2_00943_af2_000000149_0001_1_17_H_._HHH_b1_07249_0001_0000300022_0000001_0_0001 (protein)
chain: SSSSDVAELVRKVFEELLRLLREGNEEEAEKLVQEVLKELEERGDRLAVLVLKWAAERQRSSSSS
B10: il10ra_site1_normal_mot_HHH_b2_07440_af2_000000021_0001_1_18_H_._HHH_b1_03012_af2_0001_0000400012_0000002_0 (protein)
chain: SSSSDEELEEALRLSLEAFRLALRGNEEEARKVLEEAERLLEELGDPRALRIVRDLLRALSSSSS
B11: il10ra_site1_sap_18_mot_HHH_b1_08411_af2_000000053_0001_1_20_H_._HHH_b2_06398_0001_0000100001_0000002_0_0001_af2pred_0001 (protein)
chain: SSSSSREERLEELLERIEEALEEGDEELVLRLLLEVVKFALRLGDEEIIKRILELAEKLRSSSSS
B12: il10ra_site1_normal_mot_HHH_b2_08186_000000021_0001_43_56_H_._HHH_b2_01076_0001_0000100002_0000001_0 (protein)
chain: SSSSSSSSEVEEEVRRLLEEAEENPERAQRLLAEALRLAYEHSNQELLQEIWKVLRELSSSSSSS
B13: il10ra_site1_sap_9_mot_HHH_b2_04592_000000276_0001_41_54_H_._HHH_b2_05302_0001_0000100006_0000001_0_0001 (protein)
chain: SSSSSSRELYELSREAAELLRNGDPERAQEVVEEAIELAEEENNFAILFALRHLLRAIESSSSSS
B14: il10ra_site1_sap_17_mot_HHH_b2_05084_af2_000000250_0001_43_57_H_._26d30dbd745481c7b488aecb30247ba4_0001_0001_0000800006_0000001_0_0001_af2pred_0001 (protein)
chain: SSSSSSEEVIKLSRRALELYKDGNEEEAKEVLEEARELAEELNNELLRFLIESLQRRLDSSSSSS
B15: il10ra_site1_sap_24_mot_HHH_b1_02881_000000046_0001_1_20_H_._HHH_b1_02292_0001_0000300031_0000001_0_0001 (protein)
chain: SSSSSLHREVYELLREAAELDHEGNPEEAREVVEEALRIAEELGNWAFAEQARFLLRLIENSSSS
B16: il10ra_site1_sap_34_mot_HHH_b2_07145_000000158_0001_24_40_H_._HHH_b1_04490_af2_0001_0000100002_0000002_0_0001 (protein)
chain: SSSSTDKELIEAALRLLEQAIKHGDEELARFMIIAIRMKVEETNDEELEELLRELEKELNSSSSS
B17: il10ra_site1_normal_mot_HHH_b1_07641_af2_000000285_0001_1_21_H_._HHH_b1_00573_af2_0001_0000400014_0000002_0 (protein)
chain: SSSSSDEDSERVMELVERIAELAQEGNPEEARELLEELEELVRKLNNPIFEFVLRLLERDLSSSS
B18: il10ra_site1_normal_mot_HHH_b1_05056_000000217_0001_1_20_H_._HHH_b2_04275_0001_0000400021_0000001_0 (protein)
chain: SSSSSSEESEELLEELEEALRRGDRELIQELARRIIQEAFRLSDEELLQALWRLVKEYASSSSSS
B19: il10ra_site1_normal_mot_HHH_b1_06837_000000150_0001_20_37_H_._HHH_b2_08002_0001_0000100001_0000001_0 (protein)
chain: SSSSSDSERIYELSRKAAELHHEGNKEEAEKVLEEALELAEEAGNEVLLATLEFLERQIKSSSSS
B20: il10ra_site1_sap_11_mot_05ca327611f5605f0dd8494b449afcbf_0001_1_000000248_0001_35_51_H_._HHH_b1_07055_0001_0000900074_0000001_0_0001 (protein)
chain: SSSSSDEDQELLELLHELIELLLRGDEEEARRLAEEILRLAEELNDEKVFEMAEDLLKAISSSSS
B21: il10ra_site1_normal_mot_HHH_b1_02397_af2_000000085_0001_39_57_H_._HHH_b2_00805_0001_0000300013_0000001_0 (protein)
chain: SSSSSSDLEEYLEEIEELIEKGNPEEAARVSQEALRLIFRRGDEEALKLLWELNKLMASSSSSSS
B22: il10ra_site1_normal_mot_HHH_b2_04945_000000076_0001_1_19_H_._HHH_b2_00860_0001_0000100001_0000001_0 (protein)
chain: SSSSSADELFRRVRELIEKATQIEDEREAQELLEEALELAEENNNQVFEWAIRYLLELLRSSSSS
B23: il10ra_site1_sap_13_mot_HHH_b2_02693_af2_000000213_0001_19_35_H_._HHH_b2_05121_af2_0001_0000400021_0000003_0_0001_af2pred_0001 (protein)
chain: SSSSSQEEHVARIAEKALERLLELGDEERLRLTLRFIKFLAEQANDPEARELVEEIERLGSSSSS
B24: il10ra_site1_normal_mot_0750aae41c39e4229e2ea8fa354cc919_0001_1_000000144_0001_37_51_H_._ems_p1-16H-GBL-16H-GABBL-16H_0036_0001_0001_0002_af2_0001_0000200003_00 … (protein)
chain: SSSSAEVDAVLAEARRLATAAGDEKALAAIDYYEELKKLGKADPERLLAAATALLRYLLESSSSS

molecular target: il10ra, Q13651; experiment: yeast display titration

Apparent Kd, inactive:
B1 no binding seen
B2 no binding seen
B3 no binding seen
B4 no binding seen
B5 no binding seen
B6 no binding seen
B7 no binding seen
B8 no binding seen
B9 no binding seen
B10 no binding seen
B11 no binding seen
B12 no binding seen
B13 no binding seen
B14 no binding seen
B15 no binding seen
B16 no binding seen
B17 no binding seen
B18 no binding seen
B19 no binding seen
B20 no binding seen
B21 > 1.04 µM
B22 no binding seen
B23 no binding seen
B24 no binding seen

A stretch from the list above:
Apparent Kd, inactive:
B22 no binding seen
B23 no binding seen
